Measured values from patent US20210170046 (published 2021).

Assay: general procedure: Fmoc solid-phase peptide synthesis
Conditions: whole synthesis, reverse phase HPLC, one disulfide bridge, sequence written open

Question: Which “final HPLC purity” value does the source give for (K)16RVRRGACRGDCLG here?
Answer: Its value is >90%.
